# No constants are given. Whether binding was seen depends on the method and setting. Binding seen in cells or lysates may run through a third protein. A result given as binding can be weak or reduced; the word gives no strength. Where a sequence is shown, tags or fusion partners need not be part of it.
# Biological target: T1, 3XFLAG::UNC-40 (HEK293T) (C. elegans) (UniProt G5EF96)
# T1 sequence: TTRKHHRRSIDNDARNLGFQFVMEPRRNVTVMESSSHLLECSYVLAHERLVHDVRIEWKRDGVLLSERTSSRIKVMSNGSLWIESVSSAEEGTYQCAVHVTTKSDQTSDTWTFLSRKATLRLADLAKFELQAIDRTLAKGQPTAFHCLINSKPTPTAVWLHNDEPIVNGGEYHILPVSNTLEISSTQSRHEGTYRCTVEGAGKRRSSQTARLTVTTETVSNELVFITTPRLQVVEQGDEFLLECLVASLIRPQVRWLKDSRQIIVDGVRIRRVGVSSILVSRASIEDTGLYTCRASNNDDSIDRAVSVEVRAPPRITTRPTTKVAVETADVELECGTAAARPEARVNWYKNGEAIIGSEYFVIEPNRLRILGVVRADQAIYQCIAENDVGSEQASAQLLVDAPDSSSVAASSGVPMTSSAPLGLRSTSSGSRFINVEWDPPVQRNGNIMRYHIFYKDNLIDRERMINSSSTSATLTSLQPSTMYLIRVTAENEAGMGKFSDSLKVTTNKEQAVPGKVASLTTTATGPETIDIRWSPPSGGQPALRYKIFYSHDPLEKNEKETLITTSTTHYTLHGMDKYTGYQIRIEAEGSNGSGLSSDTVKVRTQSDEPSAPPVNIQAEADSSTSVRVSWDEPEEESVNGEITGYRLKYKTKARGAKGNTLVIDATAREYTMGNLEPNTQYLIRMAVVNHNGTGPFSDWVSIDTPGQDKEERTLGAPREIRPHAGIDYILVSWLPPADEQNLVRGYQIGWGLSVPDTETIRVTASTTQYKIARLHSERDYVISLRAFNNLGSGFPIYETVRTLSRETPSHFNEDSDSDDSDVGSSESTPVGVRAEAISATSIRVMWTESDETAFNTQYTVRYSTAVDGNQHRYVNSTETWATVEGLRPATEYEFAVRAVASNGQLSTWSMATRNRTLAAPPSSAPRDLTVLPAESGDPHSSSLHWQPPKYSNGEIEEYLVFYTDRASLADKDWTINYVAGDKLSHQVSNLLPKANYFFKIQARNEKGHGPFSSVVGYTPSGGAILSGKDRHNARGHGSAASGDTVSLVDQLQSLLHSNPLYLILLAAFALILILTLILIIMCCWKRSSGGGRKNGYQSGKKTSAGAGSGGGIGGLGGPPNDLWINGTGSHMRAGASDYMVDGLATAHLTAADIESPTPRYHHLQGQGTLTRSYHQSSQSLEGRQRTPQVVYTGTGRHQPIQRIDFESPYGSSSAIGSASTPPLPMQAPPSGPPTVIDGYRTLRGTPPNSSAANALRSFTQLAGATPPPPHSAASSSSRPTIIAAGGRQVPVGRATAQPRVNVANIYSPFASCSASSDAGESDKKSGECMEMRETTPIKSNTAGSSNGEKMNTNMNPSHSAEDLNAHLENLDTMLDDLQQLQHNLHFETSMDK
# Assay: co-IP; as a1, FLAG-tagged UNC-40 in HEK293 cells with co-expressed UNC-6, or UNC-6 and EVA-1; luciferase-tagged MADD-4 in the immunoprecipitate
substance,measurement,value
HA::MADD-4B::Gaussia luciferase (C. elegans) (ligand),binding,binds

# — article PMC4133157
